PubChem BioAssay AID602196, INSERM | 2012

- Screen: 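Modifiers of cisplatin sensitivity in A549 cells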
- Cell system: human A549 lung cancer cells
- Knock-down reagent: siRNA pair against human genes
- Timing: 48 h transfection before cisplatin; time from cisplatin to read-out not stated
- Treatment: cisplatin at a dose killing half of control-siRNA cells; exact dose and duration not given
- Read-out: 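Shift in cisplatin death relative to control siRNA, from -50 (all cells die) to +50 (no cells die); siRNAs harmful on their own scored 0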
- Scale: two-siRNA summed score (-2 to +2): higher = both siRNAs protect from cisplatin killing; -2 means both sensitise; mean protection from cisplatin (shift in death): higher = protection from cisplatin killing
- Active means: 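Each siRNA scores 0 if harmful alone by LDH or WST-1, otherwise +1 if it reduces and -1 if it increases cisplatin killing; a gene is active when both siRNAs agree (sum +2 or -2)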
- Meaning of the calls: active = both siRNAs shift cisplatin killing the same way; inactive = no consistent shift, or siRNA harmful alone
Here is one part, drawn at random, of about 23,000 reagents. Of all reagents, 455 (2%) got an active call. 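Active includes both protection and sensitisation; some change values fall well beyond the stated -50 to +50 range.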 Further read-outs or replicates are left out here. Reagent sequences are not shown. The record does not give: the amount of reagent.

DMAP1 → two-siRNA summed score (-2 to +2) = 0; mean protection from cisplatin (shift in death) (%) = -2.9; call = inactive
IL10 → two-siRNA summed score (-2 to +2) = 0; mean protection from cisplatin (shift in death) (%) = -3.5; call = inactive
LOC150207 → two-siRNA summed score (-2 to +2) = 0; mean protection from cisplatin (shift in death) (%) = -1.2; call = inactive
CSH1 → two-siRNA summed score (-2 to +2) = -1; mean protection from cisplatin (shift in death) (%) = -5.4; call = inactive
LOC339231 → two-siRNA summed score (-2 to +2) = 0; mean protection from cisplatin (shift in death) (%) = 22.1; call = inactive
CAVIN1 → two-siRNA summed score (-2 to +2) = 0; mean protection from cisplatin (shift in death) (%) = 12.8; call = inactive
HTATIP2 → two-siRNA summed score (-2 to +2) = 0; mean protection from cisplatin (shift in death) (%) = 3.7; call = inactive
PROKR1 → two-siRNA summed score (-2 to +2) = 0; mean protection from cisplatin (shift in death) (%) = 4.5; call = inactive
KRT25 → two-siRNA summed score (-2 to +2) = 0; mean protection from cisplatin (shift in death) (%) = 9; call = inactive
COG8 → two-siRNA summed score (-2 to +2) = 0; mean protection from cisplatin (shift in death) (%) = -3.5; call = inactive
CLRN3 → two-siRNA summed score (-2 to +2) = 0; mean protection from cisplatin (shift in death) (%) = 6.7; call = inactive
OR5T3 → two-siRNA summed score (-2 to +2) = 0; mean protection from cisplatin (shift in death) (%) = -3.6; call = inactive
